Reference: paper doi:10.1101/2025.05.30.657136
No constants are given. Whether binding was seen depends on the method and setting. Binding seen in cells or lysates may run through a third protein. Some results given as binding are weak or reduced against the parent protein; the word gives no strength.

Chains of the proteins cited; added tags and fusions are not shown.
UniProt P83741: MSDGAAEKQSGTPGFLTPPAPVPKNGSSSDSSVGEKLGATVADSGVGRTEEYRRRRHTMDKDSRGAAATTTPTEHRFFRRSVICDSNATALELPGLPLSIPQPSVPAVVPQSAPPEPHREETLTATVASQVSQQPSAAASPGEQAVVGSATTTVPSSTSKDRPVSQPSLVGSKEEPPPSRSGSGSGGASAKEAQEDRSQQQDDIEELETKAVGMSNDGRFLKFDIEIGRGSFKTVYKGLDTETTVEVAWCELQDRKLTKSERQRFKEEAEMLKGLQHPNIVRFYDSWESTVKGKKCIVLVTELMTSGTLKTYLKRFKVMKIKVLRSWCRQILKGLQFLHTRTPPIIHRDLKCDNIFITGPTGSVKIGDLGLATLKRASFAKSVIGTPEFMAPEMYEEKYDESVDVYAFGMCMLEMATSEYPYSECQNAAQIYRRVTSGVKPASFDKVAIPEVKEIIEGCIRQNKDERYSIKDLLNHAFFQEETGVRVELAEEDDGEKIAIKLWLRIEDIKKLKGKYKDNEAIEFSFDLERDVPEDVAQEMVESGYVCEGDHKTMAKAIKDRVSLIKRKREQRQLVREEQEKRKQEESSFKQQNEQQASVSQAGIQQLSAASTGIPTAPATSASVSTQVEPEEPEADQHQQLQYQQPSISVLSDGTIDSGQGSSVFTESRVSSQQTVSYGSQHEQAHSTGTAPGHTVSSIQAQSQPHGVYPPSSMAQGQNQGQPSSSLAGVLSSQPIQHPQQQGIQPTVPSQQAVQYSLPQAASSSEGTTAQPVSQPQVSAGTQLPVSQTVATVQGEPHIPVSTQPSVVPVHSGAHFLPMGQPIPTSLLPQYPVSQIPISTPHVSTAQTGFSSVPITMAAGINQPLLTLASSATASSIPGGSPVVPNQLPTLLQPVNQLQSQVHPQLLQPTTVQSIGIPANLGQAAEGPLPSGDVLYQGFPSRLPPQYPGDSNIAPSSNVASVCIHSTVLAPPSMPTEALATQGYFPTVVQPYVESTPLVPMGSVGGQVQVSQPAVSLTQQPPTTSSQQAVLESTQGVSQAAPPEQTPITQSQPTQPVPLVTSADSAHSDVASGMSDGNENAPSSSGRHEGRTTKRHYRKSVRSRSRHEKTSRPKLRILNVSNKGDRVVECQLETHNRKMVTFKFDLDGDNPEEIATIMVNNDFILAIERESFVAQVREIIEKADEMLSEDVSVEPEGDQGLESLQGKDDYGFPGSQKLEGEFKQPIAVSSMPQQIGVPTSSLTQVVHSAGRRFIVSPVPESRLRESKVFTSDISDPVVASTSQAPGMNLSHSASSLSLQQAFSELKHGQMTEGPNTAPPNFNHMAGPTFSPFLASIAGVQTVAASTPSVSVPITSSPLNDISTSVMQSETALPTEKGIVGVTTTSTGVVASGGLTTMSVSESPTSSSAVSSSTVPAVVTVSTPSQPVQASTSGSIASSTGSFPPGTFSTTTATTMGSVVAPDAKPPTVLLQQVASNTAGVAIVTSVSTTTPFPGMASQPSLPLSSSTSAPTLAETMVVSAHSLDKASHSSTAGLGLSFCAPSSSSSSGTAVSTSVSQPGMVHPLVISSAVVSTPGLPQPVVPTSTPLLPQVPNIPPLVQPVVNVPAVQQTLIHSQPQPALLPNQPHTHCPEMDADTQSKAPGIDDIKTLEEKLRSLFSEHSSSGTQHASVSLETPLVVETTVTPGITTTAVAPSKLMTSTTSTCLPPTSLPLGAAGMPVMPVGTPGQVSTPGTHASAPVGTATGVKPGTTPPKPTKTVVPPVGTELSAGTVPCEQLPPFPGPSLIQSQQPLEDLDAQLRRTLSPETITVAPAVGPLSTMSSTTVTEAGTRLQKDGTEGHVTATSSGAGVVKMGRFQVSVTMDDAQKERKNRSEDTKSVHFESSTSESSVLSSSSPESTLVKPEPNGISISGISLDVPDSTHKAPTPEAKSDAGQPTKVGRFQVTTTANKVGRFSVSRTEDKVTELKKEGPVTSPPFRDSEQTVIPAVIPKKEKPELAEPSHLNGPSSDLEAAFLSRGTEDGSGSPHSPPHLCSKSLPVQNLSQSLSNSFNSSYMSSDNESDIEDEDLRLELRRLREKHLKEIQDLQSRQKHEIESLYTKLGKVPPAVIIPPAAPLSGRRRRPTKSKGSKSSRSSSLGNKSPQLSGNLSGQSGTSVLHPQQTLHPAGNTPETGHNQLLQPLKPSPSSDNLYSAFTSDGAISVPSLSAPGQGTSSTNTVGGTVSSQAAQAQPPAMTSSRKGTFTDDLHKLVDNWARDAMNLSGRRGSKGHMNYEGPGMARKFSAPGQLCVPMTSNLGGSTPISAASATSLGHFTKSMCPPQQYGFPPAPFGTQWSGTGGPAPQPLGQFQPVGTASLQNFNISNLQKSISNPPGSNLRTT
UniProt Q61879: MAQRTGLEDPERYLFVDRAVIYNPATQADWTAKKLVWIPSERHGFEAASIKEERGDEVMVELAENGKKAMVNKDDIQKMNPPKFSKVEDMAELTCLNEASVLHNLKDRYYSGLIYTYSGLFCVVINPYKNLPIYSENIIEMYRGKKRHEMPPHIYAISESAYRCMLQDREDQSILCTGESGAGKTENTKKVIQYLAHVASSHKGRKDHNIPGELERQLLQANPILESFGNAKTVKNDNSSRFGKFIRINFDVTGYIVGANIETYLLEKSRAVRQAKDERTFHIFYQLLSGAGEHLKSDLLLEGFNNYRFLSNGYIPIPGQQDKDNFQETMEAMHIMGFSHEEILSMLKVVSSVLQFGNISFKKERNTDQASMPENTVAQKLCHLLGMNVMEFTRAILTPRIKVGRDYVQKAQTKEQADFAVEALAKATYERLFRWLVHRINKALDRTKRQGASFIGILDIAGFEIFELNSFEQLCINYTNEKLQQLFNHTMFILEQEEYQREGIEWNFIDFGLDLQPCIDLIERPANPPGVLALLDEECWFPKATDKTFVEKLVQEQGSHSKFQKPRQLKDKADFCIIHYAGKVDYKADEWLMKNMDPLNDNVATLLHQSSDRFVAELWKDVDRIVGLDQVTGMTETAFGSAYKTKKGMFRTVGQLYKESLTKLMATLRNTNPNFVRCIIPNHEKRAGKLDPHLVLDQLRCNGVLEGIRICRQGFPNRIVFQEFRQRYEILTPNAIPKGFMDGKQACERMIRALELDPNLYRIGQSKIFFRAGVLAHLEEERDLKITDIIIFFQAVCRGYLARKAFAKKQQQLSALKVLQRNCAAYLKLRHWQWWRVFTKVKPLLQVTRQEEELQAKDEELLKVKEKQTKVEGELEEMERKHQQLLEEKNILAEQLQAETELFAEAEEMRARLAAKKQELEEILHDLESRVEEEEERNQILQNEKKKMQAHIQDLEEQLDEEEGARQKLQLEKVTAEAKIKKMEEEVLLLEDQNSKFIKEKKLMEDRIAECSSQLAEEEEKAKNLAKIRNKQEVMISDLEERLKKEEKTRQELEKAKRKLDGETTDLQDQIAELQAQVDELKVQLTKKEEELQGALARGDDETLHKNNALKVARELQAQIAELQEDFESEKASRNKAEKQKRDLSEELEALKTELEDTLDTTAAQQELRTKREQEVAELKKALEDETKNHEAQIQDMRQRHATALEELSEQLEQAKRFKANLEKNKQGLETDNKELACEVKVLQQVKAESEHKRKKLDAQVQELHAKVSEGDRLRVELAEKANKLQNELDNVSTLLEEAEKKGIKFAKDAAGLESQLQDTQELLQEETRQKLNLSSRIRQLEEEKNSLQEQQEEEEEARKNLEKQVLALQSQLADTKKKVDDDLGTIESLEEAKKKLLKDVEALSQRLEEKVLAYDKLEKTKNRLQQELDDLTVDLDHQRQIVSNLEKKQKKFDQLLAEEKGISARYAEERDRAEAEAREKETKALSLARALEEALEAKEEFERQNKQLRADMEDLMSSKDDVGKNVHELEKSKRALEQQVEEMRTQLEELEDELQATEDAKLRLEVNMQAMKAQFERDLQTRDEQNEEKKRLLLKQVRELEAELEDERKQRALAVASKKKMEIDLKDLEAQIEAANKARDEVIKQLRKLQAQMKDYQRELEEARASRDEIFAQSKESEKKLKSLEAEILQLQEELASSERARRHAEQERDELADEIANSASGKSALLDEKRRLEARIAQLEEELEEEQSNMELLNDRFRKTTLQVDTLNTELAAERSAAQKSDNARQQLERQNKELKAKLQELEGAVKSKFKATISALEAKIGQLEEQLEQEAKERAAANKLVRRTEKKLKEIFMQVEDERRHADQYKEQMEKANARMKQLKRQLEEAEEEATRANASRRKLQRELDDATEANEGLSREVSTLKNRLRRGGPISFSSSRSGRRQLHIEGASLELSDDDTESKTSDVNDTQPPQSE

B1: Vinculin (protein, UniProt Q64727 1-1066)
chain: MPVFHTRTIESILEPVAQQISHLVIMHEEGEVDGKAIPDLTAPVAAVQAAVSNLVRVGKETVQTTEDQILKRDMPPAFIKVENACTKLVQAAQMLQSDPYSVPARDYLIDGSRGILSGTSDLLLTFDEAEVRKIIRVCKGILEYLTVAEVVETMEDLVTYTKNLGPGMTKMAKMIDERQQELTHQEHRVMLVNSMNTVKELLPVLISAMKIFVTTKNSKNQGIEEALKNRNFTVEKMSAEINEIIRVLQLTSWDEDAWASKDTEAMKRALASIDSKLNQAKGWLRDPNASPGDAGEQAIRQILDEAGKVGELCAGKERREILGTCKMLGQMTDQVADLRARGQGASPVAMQKAQQVSQGLDVLTAKVENAARKLEAMTNSKQSIAKKIDAAQNWLADPNGGPEGEEQIRGALAEARKIAELCDDPKERDDILRSLGEIAALTSKLGDLRRQGKGDSPEARALAKQVATALQNLQTKTNRAVANSRPAKAAVHLEGKIEQAQRWIDNPTVDDRGVGQAAIRGLVAEGHRLANVMMGPYRQDLLAKCDRVDQLTAQLADLAARGEGESPQARALASQLQDSLKDLKAQMQEAMTQEVSDVFSDTTTPIKLLAVAATAPPDAPNREEVFDERAANFENHSGRLGATAEKAAAVGTANKSTVEGIQASVKTARELTPQVISAARILLRNPGNQAAYEHFETMKNQWIDNVEKMTGLVDEAIDTKSLLDASEEAIKKDLDKCKVAMANIQPQMLVAGATSIARRANRILLVAKREVENSEDPKFREAVKAASDELSKTISPMVMDAKAVAGNISDPGLQKSFLDSGYRILGAVAKVREAFQPQEPDFPPPPPDLEQLRLTDELAPPKPPLPEGEVPPPRPPPPEEKDEEFPEQKAGEVINQPMMMAARQLHDEARKWSSKGNDIIAAAKRMALLMAEMSRLVRGGSGTKRALIQCAKDIAKASDEVTRLAKEVAKQCTDKRIRTNLLQVCERIPTISTQLKILSTVKATMLGRTNISDEESEQATEMLVHNAQNLMQSVKETVREAEAASIKIRTDAGFTLRWVRKTPWYQ
B2: Myosin light chain phosphatase regulatory myosin target subunit MYPT1 (protein, UniProt Q9DBR7 1-1029)
chain: MKMADAKQKRNEQLKRWIGSETDLEPPVVKRQKTKVKFDDGAVFLAACSSGDTDEVLKLLHRGADINYANVDGLTALHQACIDDNVDMVKFLVENGANINQPDNEGWIPLHAAASCGYLDIAEFLIGQGAHVGAVNSEGDTPLDIAEEEAMEELLQNEVNRQGVDIEAARKEEERVMLRDARQWLNSGHISDVRHAKSGGTALHVAAAKGYTEVLKLLIQAGYDVNIKDYDGWTPLHAAAHWGKEEACRILVDNLCDMETVNKVGQTAFDVADEDILGYLEELQKKQTLLHSEKRDKKSPLIESTANMENNQPQKAFKNKETLIIEPEKNASRIESLEHEKADEEEEGKKDESSCSSEEDEEDDSESEAETDKTKPMASVSNAHTSSTQAAPAAVTAPTLSSNQGTPTSPVKKFPISTTKISPKEEERKDESPASWRLGLRKTGSYGALAEISASKEAQKEKDTAGVMRSASSPRLSSSLDNKEKEKDNKGTRLAYVTPTIPRRLASTSDIEEKENRESSSLRTSSSYTRRKWEDDLKKNSSINEGSTYHRSCSFGRRQDDLISCSVPSTTSTPTVTSAAGLQRSLPSSTSTAAKTPPGSSSAGTQSSTSNRLWAEDSTEKEKDSAPTAVTIPVAPTVVNAAAPSTTTLTTTTAGTVSEVRERRRSYLTPVRDEESESQRKARSRQARQSRRSTQGVTLTDLQEAEKTIGRSRSTRTREQENEEKEKEEKEKQDKEKQEEKKESEASREDEYKQKYSRTYDETYTRYRPVSTSSSSAPSSSSLSTLGSTLYASSQLNRPNSLVGITSAYSRGLAKENEREGEKKEEEKEGEDKSQPKSIRERRRPREKRRSTGVSFWTQDSDENEQERQSDTEDGSSKRETQTDSVSRYDSSSTSSSDRYDSLLGRSASYSYLEDRKPYSSRLEKDDSTDFKKLYEQILAENEKLKAQLHDTNMELTDLKLQLEKATQRQERFADRSQLEMEKRERRALERRISEMEEELKMLPDLKADNQRLKDENGALIRVISKLSK

Biological target: With-no-lysine (WNK)1 kinase (mouse (endogenous in mouse podocytes)) (UniProt P83741)
Test: co-IP

binding | Molecule
binds | Non-muscle myosin IIB (from UniProt Q61879 1-1976)
binds | B1
binds | B2
